For the experiment, the target named is T1, CtaD with Strep-tag, subunit I homologue of complex IV (Corynebacterium glutamicum) (UniProt Q79VD7).
T1 sequence: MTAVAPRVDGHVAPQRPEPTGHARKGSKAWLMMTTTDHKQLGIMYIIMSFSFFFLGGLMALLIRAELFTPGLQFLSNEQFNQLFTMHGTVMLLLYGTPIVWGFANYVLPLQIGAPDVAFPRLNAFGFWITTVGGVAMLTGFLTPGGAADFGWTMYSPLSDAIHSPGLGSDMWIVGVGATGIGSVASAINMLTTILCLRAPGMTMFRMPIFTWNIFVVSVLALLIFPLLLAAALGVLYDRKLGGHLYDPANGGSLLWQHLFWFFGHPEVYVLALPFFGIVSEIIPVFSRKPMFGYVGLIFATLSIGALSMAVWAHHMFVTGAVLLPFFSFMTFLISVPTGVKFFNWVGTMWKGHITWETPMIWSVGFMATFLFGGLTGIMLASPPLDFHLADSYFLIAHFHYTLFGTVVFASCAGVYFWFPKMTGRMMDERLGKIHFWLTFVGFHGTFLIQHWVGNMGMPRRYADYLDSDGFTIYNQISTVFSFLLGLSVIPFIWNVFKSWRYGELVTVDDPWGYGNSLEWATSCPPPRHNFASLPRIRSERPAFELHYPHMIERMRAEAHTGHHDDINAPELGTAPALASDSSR
Nature of the experiment: affinity purification with mass spectrometry.

No constants are given. Whether binding was seen depends on the method and setting. Binding seen in cells or lysates may run through a third protein. Here binding means that the protein was enriched with, or labelled near, the bait; the list need not be complete. Tags and fused reporters may be left off the sequences shown.

Results on 5 molecules are retold here after paper doi:10.1101/2021.06.16.448340 (bioRxiv, 2021).

B1: QcrA, Rieske iron-sulfur (FeS) protein subunit of complex III (protein, UniProt Q79VE8 1-408)
chain: MSNNNDKQYTTQELNAMSNEDLARLGTELDDVTIAYRKERFPIANDPAEKRAARAVTFWLVLGIIGGLGFLATYIFWPWEYKAHGDEGLLAYTLYTPMLGITSGLCILSLGFAVVLYVKKFIPEEIAVQRRHDGPSEEVDRRTIVALLNDSWQTSTLGRRKLIMGLAGGGAVLAGLTIIAPMGGMIKNPWNPKEGPMDVQGDGTLWTSGWTLVENDVKVYLGRDTAAIAESHTDATGEHWSTTGVSRLVRMRPEDLAAASMETVFPLPAEMVNDGAEYDPAKDVYEHQMHSVHGPRNAVMLIRLRTADAEKVIEREGQESFHYGDYYAYSKICTHIGCPTSLYEAQTNRILCPCHQSQFDALHYGKPVFGPAARALPQLPITVDEEGYLIAAGNFIEPLGPAFWERKS
On to B1, for which the binding result is “binds”.

B2: CtaC, subunit II homologue of complex IV (protein, UniProt Q8NNK2 29-359)
chain: CEVAPPGGVLGDFLRMGWPDGITPEAVAMGNFWSWVWVAAWIIGIIMWGLFLTAIFAWGAKRAEKRGEGEFPKQLQYNVPLELVLTIVPIIIVMVLFFFTVQTQDKVTALDKNPEVTVDVTAYQWNWKFGYSEIDGSLAPGGQDYQGSDPERQAAAEASKKDPSGDNPIHGNSKSDVSYLEFNRIETLGTTDEIPVMVLPVNTPIEFNLASADVAHSFWVPEFLFKRDAYAHPEANKSQRVFQIEEITEEGAFVGRCAEMCGTYHAMMNFELRVVDRDSFAEYISFRDSNPDATNAQALEHIGQAPYATSTSPFVSDRTATRDGENTQSNA
As to B2, the binding entry is “binds”.

B3: P24 (protein, UniProt Q8NNH6 1-181)
chain: MVRSLGCKAHFGTRQEVRNSTMAIKLSIDLSDATFAELSAVIGYAHQLGVDADEKLTFEGTVLNIEFDGDLQFDDVFDAFDEAEIELDNPREDGPIYADDLIDEDEDYRAQTKSQINDEVINEIRDGISSFVDGIVNGLGQGRRGGRYGDFGGPRGPRGPRNDGPFGPFGPFGPGYRGPRF
On to B3, for which the binding entry is on record as “binds”.

B4: CtaE, subunit of complex IV (protein, UniProt Q9AEL8 1-205)
chain: MTSAVGNTGMAAPQRVAALNRPNMVSVGTIVFLSQELMFFAGLFAMYFVSRANGLANGSWGEQTDHLNVPYALLITVILVSSSVTCQFGVFAAERGDVYGLRKWFLVTIILGSIFVIGQGYEYITLVGHGLTIQSSVYGSAFFITTGFHALHVIAGVMAFVVVLMRIHKSKFTPAQATAAMVVSYYWHFVDVVWIGLFITIYFIQ
Turning to B4, the binding entry is reported as “binds”.

B5: QcrC, di-heme cyt. cc subunit of complex III (protein, UniProt Q8NNK5 1-283)
chain: MAKPSAKKVKNRRKVRRTVAGALALTIGLSGAGILATAITPDAQVATAQRDDQALISEGKDLYDVACITCHGVNLQGVEDRGPSLVGVGEGAVYFQVHSGRMPILRNEAQAERKAPRYTEAQTLAIAAYVAANGGGPGLVYNEDGTLAMEELRGENYDGQITSADVARGGDLFRLNCASCHNFTGRGGALSSGKYAPNLDAANEQEIYQAMLTGPQNMPKFSDRQLSADEKKDIIAFIKSTKETPSPGGYSLGSLGPVAEGLFMWVFGILVLVAAAMWIGSRS
As to B5, the binding entry was “binds”.
